The assay is described as follows: qHTS Assay to Find Inhibitors of Chronic Active B-Cell Receptor Signaling. The conditions noted are these: ABC-DLBCL IkBa-CBG/CBR reporter, luminescence ratio (green luciferase fused to IkBa over red control in TMD8 lymphoma cells), 4 h. A digest of the protocol: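 TMD8 human ABC-DLBCL cells with doxycycline-inducible IκBα–green luciferase fusion and unfused red luciferase, in 0.5% FBS medium; compounds up to 46 uM, 4 h at 37C. Green/red luminescence ratio, filter-overlap corrected, fitted to concentration-response curves.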
A general note: Quantitative high-throughput screening tests each substance at several concentrations.

Setting [1] is: measured here: CBR red luminescence, cell number.

Each structure is given as a SMILES string. The list shows a part of the results. Shown are side measurements of this screen, not its main read-out; they come without a call. The list favours compounds with an active or inconclusive main result. Words in brackets tell the shape of the fitted curve; partial curves, single points and poor fits give uncertain potencies.

Consider `Cc1cc(C)cc(NC(=O)NNC(=O)c2cc3occc3[nH]2)c1`, for which, under setting [1], the AC50 was 35.5 µM [falling, single point].

Take `CC1CN/C(=C\C(=O)c2ccc(Cl)cc2)C(=O)N1` (configuration not stated): the half-maximal activity concentration (AC50) under setting [1] was 3.66 µM [falling, partial curve].

Turning to `COc1cccc(-c2nnc(NC(=O)c3ccc4ncsc4c3)o2)c1`, the concentration at half-maximal activity (AC50) under setting [1] is 2.06 µM [falling, full curve].

For `COc1ccccc1-c1nnc(SCc2ccccn2)n1C`, the AC50 under setting [1] is 1.46 µM [rising, partial curve].

On to `C=CCNc1nc(-c2ccc(Cl)cc2)cs1`, for which the half-maximal activity concentration (AC50) under setting [1] is 31.6 µM [falling, single point].

Take `CCC1=C(OC(=O)N(CC)CC)N2C(=O)OC(=NCCOC)[C@]2(Cc2ccccc2)[C@H]2C1=CC[C@H]1C(=O)N(CC)C(=O)[C@H]12`: the AC50 under setting [1] is 35.5 µM [rising, single point].

On to `Cc1cccc(OCCCC(=O)Nc2ccc(N3CCOCC3)cc2)c1`, for which the AC50 under setting [1] is 0.164 µM [rising, full curve, poor fit].

In the case of `Cc1nn(C(=O)CCCn2cc([N+](=O)[O-])cn2)c(C)c1Cl`, under setting [1], the AC50 was 0.794 µM [rising, full curve, poor fit].

Consider `COc1ccc(Cl)cc1NC(=O)C(=O)NC1CCCCCC1`, for which the AC50 under setting [1] was 0.058 µM [falling, full curve].

On to `Cn1nccc1C(=O)NC1CCCc2c1cnn2-c1ccccc1F` (configuration not stated), for which, under setting [1], the AC50 was 12.6 µM [rising, single point].

With `COC(=O)c1c(C)[nH]c(C(=O)OCC(=O)c2ccc(C)s2)c1C`, the half-maximal activity concentration (AC50) under setting [1] was 16.4 µM [falling, partial curve, poor fit].

On to `Cc1c(C(=O)O)sc2[nH]c(=O)n(Cc3ccccc3)c(=O)c12`, for which the AC50 under setting [1] was 6.31 µM [falling, single point].

On to `COC(=O)c1cc(N=Nc2c(C)[nH]c3ccccc23)cc(C(=O)OC)c1`, for which the concentration at half-maximal activity (AC50) under setting [1] is 0.112 µM [rising, full curve, poor fit].

With `COc1ccccc1-c1cc(C(=O)Nc2cc(C)on2)no1`, under setting [1], the AC50 was 2.51 µM [falling, full curve].

In the case of `COC(=O)c1c(NC(=O)CSc2nnc(-c3ccco3)n2Cc2ccccc2)sc(C)c1C`, the AC50 under setting [1] is 29.1 µM [falling, single point].

As to `C[C@]12C(=O)N(c3ccc(Cl)cc3)C(=O)N1[C@H]1c3ccccc3OC[C@@H]1[C@H]2c1ccccc1`, the AC50 under setting [1] is 6.31 µM [falling, full curve, poor fit].

For the compound `CCOC(=O)[C@H]1[C@H]2COc3ccc(C)cc3[C@@H]2N2C(=O)c3cc(F)c(F)cc3NC(=O)[C@@]12C`, the AC50 under setting [1] is 23.1 µM [falling, single point].

On to `O=C(OCc1ccccc1)/C(=C/c1cccc(Br)c1)NC(=O)c1ccco1`, for which the AC50 under setting [1] was 35.5 µM [falling, single point].

Take `Cc1cc(C(=S)N2CCOCC2)c(C)n1-c1ccc(F)cc1`: under setting [1], the half-maximal activity concentration (AC50) was 22.4 µM [falling, single point].

On to `COc1cc2ccccc2cc1C(=O)N(CCN(C)C)c1nc2c(C)cccc2s1`, for which, under setting [1], the AC50 is 20 µM [falling, single point].

Turning to `CCN(CC)CCNc1ncnc2c1sc1nc(N3CCCC3)c3c(c12)CC(C)(C)OC3`, the AC50 under setting [1] was 35.5 µM [falling, single point].

`Nc1nc2ccc(C(=O)NC3CCCCC3)cc2s1`: the AC50 under setting [1] was 14.1 µM [falling, single point].

On to `NC(=O)N/N=C/c1c(O)ccc2oc3c(c12)CCCC3`, for which the concentration at half-maximal activity (AC50) (measured here: IkBa-CBG green luminescence) was 12.6 µM [rising, partial curve, poor fit].

`CCC(=O)N1CCN(c2nc3ccccc3s2)CC1`: under setting [1], the concentration at half-maximal activity (AC50) was 18.4 µM [rising, single point].

Take `O=C(Nc1ccc(F)cc1)/C(Cl)=C/c1ccccc1`: the AC50 under setting [1] is 5.62 µM [falling, partial curve].

Consider `Cc1nc(-c2ccc(C(=O)Nc3ccccc3F)cc2)cs1`, for which, under setting [1], the AC50 was 3.98 µM [falling, partial curve].

Turning to `CCCCN(C(=O)c1ccc(N2CCCC2=O)cc1)c1c(N)n(Cc2ccccc2)c(=O)[nH]c1=O`, the concentration at half-maximal activity (AC50) under setting [1] is 3.66 µM [rising, single point].

On to `COc1ccc(/C=C/c2cc(C(F)(F)F)[nH]c(=O)n2)cc1OC`, for which the AC50 under setting [1] is 12.6 µM [falling, partial curve].

`Cc1ccc(/C=C/C2=NN(C)C(=O)CC2)cc1`: under setting [1], the AC50 was 14.1 µM [falling, single point].

For `O=C(O)/C=C\C(=O)Nc1cccc(C(=O)Nc2cccc(O)c2)c1`, the concentration at half-maximal activity (AC50) under setting [1] was 25.1 µM [falling, single point].

With `O=C(NCc1ccccn1)c1cc(Cl)ccc1OCc1ccccc1`, under setting [1], the half-maximal activity concentration (AC50) is 17.8 µM [falling, partial curve, poor fit].

`CCOc1ccc(-n2c(SCC(=O)Nc3ccc(CC)cc3)nc3n[nH]c(C)c3c2=N)cc1`: under setting [1], the half-maximal activity concentration (AC50) was 3.16 µM [rising, partial curve, poor fit].

On to `COc1ccc(C(=O)NCc2ccc(-n3cccc3)cc2)cc1OC`, for which, under setting [1], the AC50 was 15.8 µM [falling, single point].

Regarding `Cc1ccc(C)c(Cn2nc(-c3ccccc3)ccc2=O)c1`, the concentration at half-maximal activity (AC50) under setting [1] was 35.5 µM [falling, single point].

On to `Cc1c(N2C(=O)/C(=C\C3CC=CCC3)SC2=S)c(=O)n(-c2ccccc2)n1C` (configuration not stated), for which the half-maximal activity concentration (AC50) under setting [1] is 12.6 µM [falling, partial curve].

For the compound `Cc1ccc(SCCC(=O)N/N=C/c2ccncc2)cc1`, under setting [1], the AC50 was 35.5 µM [falling, single point].

On to `Cc1c(C(=O)NNC(=O)c2csc(N3CCOCC3)n2)oc2ccccc12`, for which the half-maximal activity concentration (AC50) under setting [1] was 13 µM [falling, partial curve, poor fit].

In the case of `COc1ccc(/C=N/N=C2/NC(=O)C(c3ccccc3)(c3ccccc3)S2)cc1`, under setting [1], the half-maximal activity concentration (AC50) was 6.51 µM [rising, single point].

Turning to `N/C(=N\OC(=O)Cc1cccs1)c1ccc(Cl)cc1`, the half-maximal activity concentration (AC50) under setting [1] was 0.447 µM [rising, full curve, poor fit].

Take `CC(C(=O)Nc1cc([N+](=O)[O-])ccc1Cl)N1CCN(c2ccccc2O)CC1` (configuration not stated): the half-maximal activity concentration (AC50) under setting [1] is 18.4 µM [falling, single point].

Turning to `O=[N+]([O-])c1ccc(COc2ccccc2/C=N/O)cc1`, the concentration at half-maximal activity (AC50) under setting [1] is 32.6 µM [falling, single point].

With `COc1ccccc1NC(=S)NCc1ccccc1Cl`, the half-maximal activity concentration (AC50) under setting [1] was 6.31 µM [rising, single point].

As a reminder, the AC50 is the concentration giving half of the maximal activity seen.

These data come from PubChem BioAssay AID493014 (National Center for Advancing Translational Sciences (NCATS), 2011).
